Results: PubChem BioAssay AID1347431 (National Center for Advancing Translational Sciences (NCATS), 2020)
The campaign covered roughly 1,200 compounds. Fewer than 10 were called active. The call rests on the fitted dose curve; in most records, active means well fitted curve in the direction sought with a large enough effect; inconclusive means small, poorly fitted or top-dose-only effect, or another doubt; inactive means no such curve, though single readings can be large or run the other way. Some of the results follow.

assay: Confirmatory qHTS assay for inhibitors of Activation Induced Cytidine Deaminase (AID): UDG signals; conditions: UDG coupled enzyme activity counter-screen; at 115 µM (top of the series) unless noted; further: 0% is about no effect
Summary of the method: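 UDG readout, a counterscreen: AID (1 uM, 4/3x) plus UDG (2 U/mL, 4/3x) preincubated 10 min with compound (7.32 nM - 114 uM final), then 4 h with DJC20/DJC23 substrates at room temperature; NaOH added, fluorescence read at 560/665 nm.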

SMILES	activity change, negative = inhibition
Cc1c(C(=O)N(C)Cc2ccccc2)sc2nc(-c3ccc(F)cc3)cn12	inactive: -10.1%
CCOC(=O)c1c(C)oc2nc(C)nc(N(CC(C)C)CC(C)C)c12	inactive: -17.5%
C=CCc1c(C)nc2nc(SCC(=O)Nc3cccc(Cl)c3)nn2c1C	inactive: 7.28%
CCCN1CCN(c2ncnc3sc(C(=O)Nc4ccc(C(C)C)cc4)c(C)c23)CC1	inactive: -1.46%
Cc1ccc(C)c(N2CCN(C(=O)c3cn(CC(C)C)c(=O)c4c3c3ccccc3n4C)CC2)c1	inactive: -15.8%
Cc1ccc(C)c(NC(=O)CSc2nccn2-c2cccc(C)c2C)c1	inactive: -9.11%
Cc1nn(-c2nc(-c3ccccc3)cc(C(F)(F)F)n2)c(C)c1Cl	inactive: -4.92%
CCCCN(C)CC(O)Cn1cc(/C=C/C(=O)c2ccc(Br)cc2)c2ccccc21 (configuration not stated)	inactive: -9.1%
COc1cccc(-c2cc(C(F)(F)F)nc(NCCc3ccc(OC)c(OC)c3)n2)c1	inactive: -15.3%
Cc1ccc(-n2ncc(C(=O)NCc3ccco3)c2C2CCN(C(=O)OC(C)(C)C)CC2)cc1C	inactive: -6.41%
CCN(CC)S(=O)(=O)c1ccc(C(=O)NCCSc2c(-c3ccccc3)[nH]c3ccccc23)cc1	inactive: -2.51%
CCc1ccc(Nc2nc3ccccc3nc2NS(=O)(=O)c2ccccc2)cc1	inactive: -2.15%
COc1cccc(Cn2cc(C(=O)c3ccc(Cl)cc3)c(=O)c3ccccc32)c1	inactive: -5.96%
Cc1ccc(Cn2c(CCNC(=O)c3cccc(C)c3)nc3ccccc32)cc1	inactive: -5.72%
COc1ccc(-c2nc3sc(CCNC(=O)c4ccc(Br)o4)c(C)n3n2)cc1	inactive: 1.19%
CCCN(CCC)CCCNC(=O)c1cc2c(=O)n(C)c3ccccc3c2s1	inactive: -5.67%
CCC(C)c1ccc(OCC(=O)Nc2cccc(-c3nc4ncccc4o3)c2)cc1 (configuration not stated)	inactive: -3.86%
CC(C)(C)OC(=O)N1CCC(c2c(C(=O)NCCN3CCC(Cc4ccccc4)CC3)cnn2-c2cccc(Cl)c2)CC1	inactive: -8.96%
COc1ccc(C2C=C(c3ccccc3)Nc3nc(NS(=O)(=O)c4ccccc4)nn32)cc1 (configuration not stated)	inactive: 9.56%
Cc1ccc(-c2sc(C(=O)Nc3ccc(Br)cc3)cc2CC(=O)O)cc1	inactive: 8.68%
CCn1c(=O)c2cc(C(=O)N(CCCOC(C)C)Cc3ccco3)sc2c2ccccc21	inactive: -6.49%

SMILES	activity change, negative = inhibition
COc1cccc(CC(=O)Nc2ccc3nc(N4CCC(C)CC4)cc(C)c3c2)c1	inactive: -7.49%
CCc1nnc2c(N3CCN(c4cccc(C)c4)C(C)C3)nc3ccccc3n12 (configuration not stated)	inactive: -8.85%
Cc1ccc(C(=O)N(Cc2ccco2)Cc2sccc2C)cc1	inactive: -1.66%
COc1ccc(-c2nc3c(c(SCC(=O)Nc4cccc(O)c4)n2)Cc2c(CO)cnc(C)c2O3)cc1	inactive: -11.6%
COc1cc(Cn2c(=O)oc3ccc(C)cc32)ccc1OCCC(C)C	inactive: 0.453%
CCC(Sc1nc2c(sc3ccccc32)c(=O)n1CCc1ccc(OC)c(OC)c1)C(=O)N(CC)CC (configuration not stated)	inactive: -0.348%
Cc1ccc(-c2cn3c(n2)sc2cc(C(=O)NCCCN4CCCCCC4)ccc23)cc1	inactive: 3.32%
CSc1nc(NCCOC(C)=O)c(C#N)c(-c2ccc(C(C)(C)C)cc2)n1	inactive: -15.1%
Cc1cc(C)cc(-n2ccnc2SCC(=O)Nc2cccc3ccccc23)c1	inactive: -7.88%
Cc1nc2cc(-c3ccccc3)nn2c(C)c1CCC(=O)N1CCN(c2ccc(F)cc2)CC1	inactive: -8.14%
Cc1cccc(-n2ccnc2SCC(=O)Nc2cccc3ccccc23)c1	inactive: -3%
O=C(Nc1cc(-c2ccccc2)sc1C(=O)O)c1cccc(F)c1	inactive: -3.22%
CCn1cc(C(=O)NCCCN2CCC(C)CC2)c(=O)c2cc(S(=O)(=O)N(C)C3CCCCC3)ccc21	inactive: -2.22%
Cc1cccc(-c2nc3c(cnn3-c3ccccc3)c(=O)n2-c2cccc(Cl)c2)c1	inactive: -7.85%
CC(C)(C)OC(=O)N1CCC(c2c(C(=O)Nc3ccc4c(c3)OCCO4)cnn2-c2ccc(F)cc2)CC1	inactive: -12.2%
Cc1ccc2nc(NS(=O)(=O)c3ccc(Cl)cc3)c(Nc3ccc(C(=O)O)cc3)nc2c1	inactive: -2.11%
CCC1CCCCN1C(=O)CSc1nc2c([nH]c3ccccc32)c(=O)n1-c1cccc(OC)c1 (configuration not stated)	inactive: -3.26%
Cc1ccc(Cl)cc1Nc1nn2c(=O)c3ccc(C(=O)NCc4cccs4)cc3nc2s1	inactive: 2.68%
Cc1nc2nc(SCC(=O)NCc3ccccc3)nn2c(C)c1Cc1ccccc1Cl	inactive: -8.71%
COc1ccc(-c2nc3nc(C)cc(Nc4ccc(C(C)=O)cc4)n3n2)cc1	inactive: 2.35%
COc1ccc(-c2cc(C(=O)Oc3ccccc3)c3cc(C)ccc3n2)cc1	inactive: 1.31%

SMILES	activity change, negative = inhibition
Cc1nc2nc(NC(=O)c3cccc(Cl)c3)[nH]n2c(=O)c1Cc1ccccc1	inactive: -8.15%
COc1ccc(-c2nc3c(c(SCC(=O)Nc4ccc(C(=O)O)cc4)n2)Cc2ccccc2O3)cc1	inactive: 5.87%
O=C(c1noc2c1CCCCC2)N1CCN(c2ccc(Cl)cc2)CC1	inactive: 4.95%
Cn1c(=O)c2c(-c3ccc(Br)cc3)n(CCc3ccccc3)cc2n(C)c1=O	inactive: -1.72%
CCc1ccc(OCC(=O)N(Cc2ccco2)Cc2ccccc2Cl)cc1	inactive: -3.43%
CCn1cc2nc(SCc3cccc(C(F)(F)F)c3)n(Cc3ccc(C)cc3)c(=O)c2n1	inactive: -5.91%
CCOC(=O)c1cnc2c(Cl)cc(Cl)cc2c1Nc1cc(C(=O)O)ccc1C	inactive: 6.19%
CCCn1c(SCc2nc(-c3ccccc3OCC)no2)nnc1-c1ccc(Cl)cc1	inactive: -14.3%
CN(c1ccc(F)cc1)S(=O)(=O)N1CCCC(C(=O)NCc2cccc(Br)c2)C1 (configuration not stated)	inactive: -8.48%
Cc1ccccc1Cc1c(C)nc2nc(SCC(=O)N(C)c3ccccc3)nn2c1C	inactive: -11.5%
CCc1cnc2c(c1SCc1ccccc1C)c(=O)n(C)c(=O)n2C	inactive: -4.03%
O=C(C1CCC(Cn2c(=O)c3sccc3n(Cc3ccccc3)c2=O)CC1)N1CCCCC1 (configuration not stated)	inactive: -7.59%
O=C1c2ccccc2C(=O)C1(c1ccccc1)N1CCN(c2cccc(C(F)(F)F)c2)CC1	inactive: 4.62%
Cc1oc(-c2ccccc2Cl)nc1CS(=O)(=O)CC(=O)NC(C)CCc1ccccc1 (configuration not stated)	inactive: -16.7%
Cc1ccc(S(=O)(=O)c2nnn3c2nc(N2CCCCC2)c2sccc23)cc1	inactive: -1.37%
Cc1ccc(C(=O)/C=C/c2cn(CC(O)CN3CCCCCC3)c3ccccc23)cc1 (configuration not stated)	inactive: -5.21%
CC(=O)Nc1ccc(S(=O)(=O)Nc2nc3n(n2)C(c2ccccc2)C=C(c2ccc(Cl)cc2)N3)cc1 (configuration not stated)	inactive: 6.59%
COc1ccccc1CN(Cc1ccco1)c1cnc(S(C)(=O)=O)nc1C(=O)Nc1ccccc1Cl	inactive: -5.35%
COc1ccc(C(=O)c2cn(Cc3cccc(C)c3)c3cc4c(cc3c2=O)OCCO4)cc1OC	inactive: 3.22%
Cc1nnc2c3ccccc3nc(N3CCN(c4cccc(Cl)c4)CC3)n12	inactive: -13.2%
CCN(C(=O)CSc1nc(-c2ccccc2)no1)c1cccc(C)c1	inactive: 7.11%

SMILES	activity change, negative = inhibition
Cc1cccc(Cn2cc(C(=O)c3ccccc3)c(=O)c3cc4c(cc32)OCO4)c1	inactive: -2.38%
O=C(NCC(c1ccccc1)c1ccccc1)c1nn(-c2ccccc2Cl)nc1CO	inactive: -13.5%
COc1cc(OC)c(N(C)C(=O)c2nn(C)c3c2CSc2ccccc2-3)cc1Cl	inactive: -8.43%
Cn1c(SCc2ccc(F)cc2)nc2ccc(C(=O)NCc3ccc(F)cc3)cc21	inactive: -0.557%
CCOc1ccccc1NC(=O)CSc1nccn1-c1ccc(Cl)cc1	inactive: -6.79%
CCOc1ccc(CNC(=O)c2c(C)nn(-c3ccc(F)cc3)c2-n2cccc2)cc1	inactive: 6.32%
Cc1nc2nc(NC(=O)c3ccc(Cl)cc3)[nH]n2c(=O)c1Cc1ccccc1	inactive: -3.47%
CCc1ccc(NC(=O)CSc2nc(=O)n(Cc3ccco3)c3c2CCC3)cc1	inactive: 2.29%
Cc1nc2ccccc2n1CCc1nc2c3ccccc3nc(SCC(=O)Nc3ccc(C(C)C)cc3)n2n1	inactive: -1.98%
CCCCn1c(-c2ccc(C)cc2)c(C)n2c3c(=O)n(C)c(=O)n(C)c3nc12	inactive: -8.55%
CCOC(=O)c1c(C)oc2nc(C)nc(NC(C)c3ccccc3)c12 (configuration not stated)	inactive: 2.44%
Cc1ccc2c(C)c(C(=O)N(Cc3ccc(Cl)cc3)C3CCS(=O)(=O)C3)oc2c1 (configuration not stated)	inactive: -12.5%
N#C/C(=C\c1ccc(-c2cc(Cl)ccc2Cl)o1)C(=O)Nc1cccc2ncccc12	inactive: -8%
Cc1cccc(CN2C(=O)c3ccccc3S(=O)(=O)c3ccc(C(=O)NCCC4=CCCCC4)cc32)c1	inactive: -4.44%
COc1ccc(Cl)cc1NC(=O)c1c(NCc2ccc(C)o2)sc2c1CCCCC2	inactive: 5.87%
CC1CCN(S(=O)(=O)c2cn(CC(=O)Nc3cccc(C(F)(F)F)c3)c(=O)c3ccccc23)CC1	inactive: -11.9%
Cc1ccc(Nc2c(-c3cccs3)nc3nc(C)cc(C)n23)cc1	inactive: 6.16%
CCC(C(=O)Nc1cc(Cl)ccc1OC)n1nc(-c2ccccc2)ccc1=O (configuration not stated)	inactive: 0.722%
COc1ccc(C(=O)NCC(c2cccnc2)N2CCc3ccccc32)cc1 (configuration not stated)	inactive: 13.2%

Four entries from above, ordered by number of heavy atoms, low to high:
SMILES	activity change, negative = inhibition
CCCCn1c(-c2ccc(C)cc2)c(C)n2c3c(=O)n(C)c(=O)n(C)c3nc12	inactive: -8.55%
COc1cc(OC)c(N(C)C(=O)c2nn(C)c3c2CSc2ccccc2-3)cc1Cl	inactive: -8.43%
Cc1cccc(Cn2cc(C(=O)c3ccccc3)c(=O)c3cc4c(cc32)OCO4)c1	inactive: -2.38%
CCOc1ccc(CNC(=O)c2c(C)nn(-c3ccc(F)cc3)c2-n2cccc2)cc1	inactive: 6.32%
